In paper PMC9242521:
No constants are given. Whether binding was seen depends on the method and setting. In cells and extracts the contact can be indirect. A result given as binding can be weak or reduced; the word gives no strength.

Target: ΔEPIYA-CagA deletion mutant Δ1 (lacks one EPIYA motif) (Helicobacter pylori (strain not stated))
Test: co-IP; AGS cells transfected with plasmids for wild type CagA, ΔEPIYA-CagA mutants or PR CagA; lysates immunoprecipitated with CagA antibody, blots for ULF, SIVA1 and MKRN1

B1: SIVA1 (endogenous) (protein, UniProt O15304 1-175)
chain: MPKRSCPFADVAPLQLKVRVSQRELSRGVCAERYSQEVFEKTKRLLFLGAQAYLDHVWDEGCAVVHLPESPKPGPTGAPRAARGQMLIGPDGRLIRSLGQASEADPSGVASIACSSCVRAVDGKAVCGQCERALCGQCVRTCWGCGSVACTLCGLVDCSDMYEKVLCTSCAMFET
B1 was tested, and the binding was “binds”.
